Test results reported in patent US20160220637A1 (Ipsen Pharma S.A.S., priority 2010, published 2016).

Assay: peptide synthesis
Details: whole synthesis

In order of rising “purity (crude or final not stated)” value:
1. H-Apc-D-Bal-D-2Nal-Phe-Apc-NH2  94%
2. H-Apc-D-1Nal-D-1Nal-Phe-Apc-NH2  95%
3. H-Apc-D-2Nal-D-Trp-2Thi-NH2  95%
4. H-Inp-D-Bpa-D-Trp-Phe-Lys-NH2  95%
5. H-Apc-D-1Nal-D-2Nal-Phe-Apc-NH2  96%
6. H-Apc-D-Bal-D-1Nal-Phe-Apc-NH2  96%
7. H-Inp-D-1Nal-D-Trp-3Pal-Lys-NH2  96%
8. H-Apc-D-1Nal-D-Trp-2Thi-Apc-NH2  97%
9. H-Apc-D-2Nal-D-Trp-Taz-NH2  97%
10. H-Apc-D-Bal-D-Trp-2Thi-NH2  97%
11. H-Inp-D-1Nal-D-Trp-2Thi-Apc-NH2  97%
12. H-Inp-D-2Nal-D-Trp-3Pal-Lys-NH2  97%
13. H-Inp-D-Bal-D-Trp-2Thi-Apc-NH2  97%
14. H-Inp-D-Bal-D-Trp-Phe-Apc-NH2  97%
15. H-Inp-D-Bal-D-Trp-Phe-NH2  97%
16. PEPTIDE1{[Inp].[D-2Nal].[dW].[Taz].K.[am]}$$$$V2.0  97%
17. H-Apc-D-1Nal-D-Trp-2Thi-NH2  98%
18. H-Apc-D-1Nal-D-Trp-Phe-Apc-NH2  98%
19. H-Apc-D-1Nal-D-Trp-Phe-Lys-NH2  98%
20. H-Apc-D-2Nal-D-Trp-Phe-Lys-NH2  98%
21. H-Apc-D-Bal-D-2Nal-Phe-Lys-NH2  98%
22. H-Apc-D-Bal-D-Trp-2Thi-Apc-NH2  98%
23. H-Apc-D-Bal-D-Trp-2Thi-Lys-NH2  98%
24. H-Apc-D-Bal-D-Trp-Phe-Apc-NH2  98%
25. H-Apc-D-Bal-D-Trp-Taz-Apc-NH2  98%
26. H-Inp-D-1Nal-D-Trp-2Thi-NH2  98%
27. H-Inp-D-1Nal-D-Trp-3Pal-NH2  98%
28. H-Inp-D-1Nal-D-Trp-Phe-Apc-NH2  98%
29. H-Inp-D-2Nal-D-Trp-4Pal-NH2  98%
30. H-Inp-D-2Nal-D-Trp-Orn-Lys-NH2  98%
31. H-Inp-D-2Nal-D-Trp-Pff-Lys-NH2  98%
32. H-Inp-D-2Nal-D-Trp-Phe-Apc-NH2  98%
33. H-Inp-D-2Nal-D-Trp-Thi-Lys-NH2  98%
34. H-Inp-D-2Nal-D-Trp-Thr(Bzl)-Lys-NH2  98%
35. H-Inp-D-Dip-D-Trp-Phe-Lys-NH2  98%
36. H-Inp-D-Dip-D-Trp-Phe-NH2  98%
37. PEPTIDE1{[Inp].[D-1Nal].[dW].[Taz].[Apc].[am]}$$$$V2.0  98%
38. PEPTIDE1{[Inp].[D-2Nal].[dW].[Taz].[am]}$$$$V2.0  98%
39. H-Apc-D-1Nal-D-1Nal-Phe-Lys-NH2  99%
40. H-Apc-D-1Nal-D-Trp-2Thi-Lys-NH2  99%
41. H-Apc-D-1Nal-D-Trp-Taz-Apc-NH2  99%
42. H-Apc-D-1Nal-D-Trp-Taz-Lys-NH2  99%
43. H-Apc-D-1Nal-D-Trp-Taz-NH2  99%
44. H-Apc-D-Bal-D-1Nal-Phe-Lys-NH2  99%
45. H-Apc-D-Bal-D-Trp-Phe-Lys-NH2  99%
46. H-Apc-D-Bal-D-Trp-Phe-NH2  99%
47. H-Apc-D-Bal-D-Trp-Taz-Lys-NH2  99%
48. H-Apc-D-Bal-D-Trp-Taz-NH2  99%
49. H-Inp-D-1Nal-D-Trp-2Thi-Lys-NH2  99%
50. H-Inp-D-2Nal-D-Bal-Phe-NH2  99%
51. H-Inp-D-2Nal-D-Bpa-Phe-Lys-NH2  99%
52. H-Inp-D-2Nal-D-Dip-Phe-NH2  99%
53. H-Inp-D-2Nal-D-Trp-2Thi-NH2  99%
54. H-Inp-D-2Nal-D-Trp-3Pal-NH2  99%
55. H-Inp-D-2Nal-D-Trp-4Pal-Lys-NH2  99%
56. H-Inp-D-2Nal-D-Trp-Pff-NH2  99%
57. H-Inp-D-2Nal-D-Trp-Thr(Bzl)-NH2  99%
58. H-Inp-D-Bal-D-Trp-2Thi-Lys-NH2  99%
59. H-Inp-D-Bal-D-Trp-Phe-Lys-NH2  99%
60. H-Inp-D-Bal-D-Trp-Taz-Apc-NH2  99%
61. H-Inp-D-Bal-D-Trp-Taz-Lys-NH2  99%
62. H-Inp-D-Bip-D-Trp-Phe-Lys-NH2  99%
63. H-Inp-D-Bip-D-Trp-Phe-NH2  99%
64. PEPTIDE1{[Apc].[D-1Nal].[dW].F.[am]}$$$$V2.0  99%
65. PEPTIDE1{[Inp].[D-1Nal].[dW].[Taz].K.[am]}$$$$V2.0  99%

Strings that start with PEPTIDE1 are HELM notation: dots part the residues, brackets hold end groups and non-standard residues.
